Test results reported in article PMC8834548, “Epiregulin as an Alternative Ligand for Leptin Receptor Alleviates Glucose Intolerance without Change in Obesity” (Cells, 2022).

Sequences of proteins named here, by UniProt entry; tags and fusion partners are left off. A change or cut given only in a name is not applied to a line headed by its entry. Residues count along the entry.
UniProt O14944: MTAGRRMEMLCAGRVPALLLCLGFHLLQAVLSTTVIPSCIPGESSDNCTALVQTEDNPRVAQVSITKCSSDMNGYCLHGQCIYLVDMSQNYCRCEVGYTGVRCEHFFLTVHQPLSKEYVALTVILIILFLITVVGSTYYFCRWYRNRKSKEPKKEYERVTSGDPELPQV
UniProt P48357, residues 22-1165: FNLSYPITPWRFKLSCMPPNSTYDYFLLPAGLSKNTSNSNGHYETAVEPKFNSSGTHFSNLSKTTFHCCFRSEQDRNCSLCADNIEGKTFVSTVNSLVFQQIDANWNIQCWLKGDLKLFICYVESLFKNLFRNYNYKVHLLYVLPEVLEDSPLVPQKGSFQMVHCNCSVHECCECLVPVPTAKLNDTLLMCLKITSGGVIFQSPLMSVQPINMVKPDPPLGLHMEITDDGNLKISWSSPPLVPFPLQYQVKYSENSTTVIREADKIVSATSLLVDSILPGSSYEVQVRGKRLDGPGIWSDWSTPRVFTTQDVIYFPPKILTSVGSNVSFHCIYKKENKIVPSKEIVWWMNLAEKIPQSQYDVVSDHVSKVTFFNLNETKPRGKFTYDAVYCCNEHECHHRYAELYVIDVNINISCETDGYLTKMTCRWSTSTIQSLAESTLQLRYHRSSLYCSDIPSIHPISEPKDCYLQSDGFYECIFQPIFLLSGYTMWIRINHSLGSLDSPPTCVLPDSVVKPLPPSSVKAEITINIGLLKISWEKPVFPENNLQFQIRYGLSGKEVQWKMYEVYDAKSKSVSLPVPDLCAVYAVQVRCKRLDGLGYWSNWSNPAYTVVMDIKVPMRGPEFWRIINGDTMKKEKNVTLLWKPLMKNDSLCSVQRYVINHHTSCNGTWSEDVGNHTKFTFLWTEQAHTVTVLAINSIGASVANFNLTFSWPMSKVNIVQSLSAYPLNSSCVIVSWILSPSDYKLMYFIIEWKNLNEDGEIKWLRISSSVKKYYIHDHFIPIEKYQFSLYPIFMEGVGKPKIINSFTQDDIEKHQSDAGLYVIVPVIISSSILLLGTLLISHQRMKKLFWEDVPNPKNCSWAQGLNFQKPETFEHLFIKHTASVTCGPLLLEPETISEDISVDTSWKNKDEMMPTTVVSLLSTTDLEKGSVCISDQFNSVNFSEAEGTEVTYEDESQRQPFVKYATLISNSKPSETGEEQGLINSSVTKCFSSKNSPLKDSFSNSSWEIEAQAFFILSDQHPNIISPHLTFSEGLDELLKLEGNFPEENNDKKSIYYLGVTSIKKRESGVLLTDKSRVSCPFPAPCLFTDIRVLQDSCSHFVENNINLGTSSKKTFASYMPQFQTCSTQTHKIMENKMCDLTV

Target: epiregulin (EREG), endogenous in human omental adipose tissue (human (endogenous in omental adipose tissue)) (UniProt O14944)
Assay: co-IP; human anti-EREG antibody, abdominal omental adipose tissue of an obese insulin-resistant patient; blot for LEPR (Figure S4)

- binding: binds weakly
Substance: leptin receptor (LEPR), endogenous in human omental adipose tissue (from UniProt P48357 22-1165)

No constants are given. Whether binding was seen depends on the method and setting. In cells and extracts the contact can be indirect. A result given as binding can be weak or reduced; the word gives no strength.
